Results published in PubChem BioAssay AID1671190 (National Center for Advancing Translational Sciences (NCATS), 2021).
The whole screen tested about 580,000 compounds, of which about 6,100 (1.1%) were called active. This list was built around the results that the source calls inconclusive (neither active nor inactive); the mix of calls is not that of the screen. The call rests on the fitted dose curve; in most records, active means well fitted inhibition curve with a large enough effect; inconclusive means small, poorly fitted or top-dose-only effect, or another doubt; inactive means no such curve, though single readings can be large or run the other way. A potency beside an inconclusive call is a rough fit, not a confirmed value.

Chains of the proteins cited; added tags and fusions are not shown.
UniProt P18054, whole entry, looked up: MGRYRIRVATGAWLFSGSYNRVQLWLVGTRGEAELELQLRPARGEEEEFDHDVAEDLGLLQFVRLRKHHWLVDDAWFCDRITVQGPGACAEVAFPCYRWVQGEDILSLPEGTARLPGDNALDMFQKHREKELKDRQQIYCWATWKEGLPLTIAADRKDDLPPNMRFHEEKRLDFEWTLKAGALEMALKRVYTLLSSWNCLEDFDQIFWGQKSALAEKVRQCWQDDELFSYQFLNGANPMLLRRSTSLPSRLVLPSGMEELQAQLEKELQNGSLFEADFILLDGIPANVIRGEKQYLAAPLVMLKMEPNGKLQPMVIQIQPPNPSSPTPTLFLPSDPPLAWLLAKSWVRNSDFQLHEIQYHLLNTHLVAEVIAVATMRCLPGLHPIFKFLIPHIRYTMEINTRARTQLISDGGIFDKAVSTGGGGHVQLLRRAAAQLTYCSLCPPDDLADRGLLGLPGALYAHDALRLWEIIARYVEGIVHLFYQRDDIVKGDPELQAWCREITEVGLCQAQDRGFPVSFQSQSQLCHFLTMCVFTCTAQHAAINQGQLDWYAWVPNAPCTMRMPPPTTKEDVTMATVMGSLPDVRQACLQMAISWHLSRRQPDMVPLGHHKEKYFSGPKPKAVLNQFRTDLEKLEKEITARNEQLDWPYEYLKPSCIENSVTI

Each molecule was assayed against Polyunsaturated fatty acid lipoxygenase ALOX12 (Homo sapiens) (UniProt P18054) (assay: Primary qHTS assay for inhibitors of human arachidonate 12S-lipoxygenase (ALOX12): Round 2). Settings: purified 12hLO, xylenol orange hydroperoxide absorbance; activity change, negative = inhibition: at 108 µM (top of the series) unless noted.
How it was run: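 Purified human 12hLO at 150 nM in 25 mM Hepes, 0.01% Triton X-100, pH 7.0, preincubated 15 min at room temperature with compound. Reaction started with 40 uM arachidonic acid, 30 min at room temperature. Hydroperoxide measured by Fe-xylenol orange, 573/405 nm absorbance ratio.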
On the % scale 0 is the no-effect control and ±100 the full control effect; potency means the concentration at half of the fitted maximal effect.

How did the “activity change, negative = inhibition” value turn out when `COCCCNc1nc2c(c(=O)n(C)c(=O)n2C)n1Cc1ccccc1C` was run?
The value was inactive: 50.1%.

Which Potency does the source give for `CC1=C/C(=C/N(C)c2ccccc2)C(=O)S1` here?
Its Potency is inconclusive: 50.1 µM [inhibitor, partial curve, poor fit].

For `Cc1ccc2oc(-c3cc(NC(=O)/C=C/c4ccco4)ccc3Cl)nc2c1`, which Potency is on record?
Its Potency is inconclusive: 50.1 µM [inhibitor, partial curve, poor fit].

With `Cc1c(CCC(=O)NC2CCS(=O)(=O)C2)c(=O)oc2cc(O)ccc12` (stereo not given) as the molecule, how does the “activity change, negative = inhibition” value read?
The value was inactive: -9.7%.

How did the Potency turn out when `Fc1ccc(/C=N/n2c(-c3cccs3)n[nH]c2=S)cc1` was run?
Its Potency is inconclusive: 44.7 µM [inhibitor, partial curve, poor fit].

`O=[N+]([O-])c1ccc(CSc2ccccn2)cc1` was tested. Which “activity change, negative = inhibition” value did it give?
Its value is inactive: 0%.

With `COc1ccc(Nc2ncnc3sccc23)cc1` as the molecule, how does the Potency read?
Its Potency is inconclusive: 100 µM [inhibitor, partial curve, poor fit].

Which “activity change, negative = inhibition” value does the source give for `CCCn1c(O)c(N=N)c2ccccc21` here?
The value was inactive: 6.31%.

With `Cc1ccc(NC(=O)Nc2c(NC3CCCC3)c3ccccc3oc2=O)cc1F` as the molecule, how does the Potency read?
The Potency was inconclusive: 89.1 µM [inhibitor, partial curve, poor fit].

`COc1ccccc1C(=O)NCCC(=O)Nc1ccc(S(=O)(=O)Nc2ncccn2)cc1` was tested. Which “activity change, negative = inhibition” value did it give?
Its value is inactive: 290%.

How did the “activity change, negative = inhibition” value turn out when `Cc1c(C2C(C#N)=C(N)N(c3ccccc3C#N)C3=C2C(=O)CCC3)cnn1C` (stereo not given) was run?
Its value is inactive: -1.62%.

For `COC(=O)c1cc(NC(=O)c2ccc(-c3ccc(Cl)cc3Cl)o2)cc(C(=O)OC)c1`, which Potency is on record?
Its Potency is inconclusive: 6.31 µM [inhibitor, full curve, poor fit].

`O=C(c1ccc(F)cc1)n1cc(C(=S)N2CCOCC2)c2ccccc21` was tested. Which Potency did it give?
Its Potency is inconclusive: 39.8 µM [inhibitor, partial curve, poor fit].

How did the “activity change, negative = inhibition” value turn out when `O=C(c1ccc(-n2cccn2)cc1)N1CCCC1c1ccc2c(c1)OCCCO2` (stereo not given) was run?
Its value is inactive: 16.1%.

For `NN/C(=C\[N+](=O)[O-])Nc1ccccc1`, which “activity change, negative = inhibition” value is on record?
The value was inactive: -16.2%.

`Cc1ccc(NC(=O)C(c2ccccc2)N2CCN(C(=O)C3CC3)CC2)cc1Cl` (stereo not given) was tested. Which “activity change, negative = inhibition” value did it give?
The value was inactive: 16%.

`CCC/C(=N\NC(=O)C(C)C)c1ccccc1` was tested. Which “activity change, negative = inhibition” value did it give?
The value was inactive: -22.3%.

With `Cc1nc(/C=C/C(=O)N(CCc2ccccc2)Cc2cccs2)cs1` as the molecule, how does the Potency read?
Its Potency is inconclusive: 70.8 µM [inhibitor, single point].

With `O=C1N[C@H](Cc2ccccc2)COC(=O)[C@H](Cc2ccc(F)cc2)C/C=C\C[C@@H]1CC(=O)N(CCO)Cc1ccccc1` as the molecule, how does the Potency read?
The Potency was inconclusive: 44.7 µM [inhibitor, partial curve, poor fit].

`CCCc1cc(=O)[nH]c(Nc2nc(C)c3ccccc3n2)n1` was tested. Which “activity change, negative = inhibition” value did it give?
The value was inactive: -1.99%.

How did the Potency turn out when `O=C1OCCC1N1C(=O)c2ccccc2S1(=O)=O` (stereo not given) was run?
Its Potency is inconclusive: 126 µM [inhibitor, single point].

`Cc1nc(-c2ccccc2)cn(O)c1=O` was tested. Which Potency did it give?
Its Potency is inconclusive: 22.4 µM [inhibitor, partial curve, poor fit].

Which Potency does the source give for `Cc1cccn2c(CC(=O)N3Cc4[nH]cnc4CC3C(=O)O)cnc12` (stereo not given) here?
The Potency was inconclusive: 3.98 µM [inhibitor, full curve, poor fit].

`O=C(NS(=O)(=O)Cc1ccccc1)c1cccc(F)c1` was tested. Which Potency did it give?
The Potency was inconclusive: 31.6 µM [inhibitor, partial curve, poor fit].

How did the Potency turn out when `O=C1CC(C(=O)N2CCN(S(=O)(=O)c3c(Cl)cccc3Cl)CC2)c2ccccc2N1` (stereo not given) was run?
The Potency was inconclusive: 44.7 µM [inhibitor, partial curve, poor fit].

How did the “activity change, negative = inhibition” value turn out when `O=C(O)CC1(CC(=O)N2CCC(Cc3ccccc3)CC2)CCCC1` was run?
The value was inactive: -38.2%.

How did the Potency turn out when `Cc1ccc(NC(=O)/C(C#N)=C\c2ccc(OC(F)F)cc2)c(C)c1` was run?
The Potency was inconclusive: 126 µM [inhibitor, single point].

With `CCOCCCN(C(=O)c1snc(C(N)=O)c1N)C(C(=O)NC(C)(C)C)c1ccc(Cl)cc1` (stereo not given) as the molecule, how does the Potency read?
Its Potency is inconclusive: 39.8 µM [inhibitor, partial curve, poor fit].

How did the Potency turn out when `Cc1ccccc1OCCC(=O)Nc1ccc(S(=O)(=O)N(C)C2CCN(C)CC2)cc1` was run?
Its Potency is inconclusive: 79.4 µM [inhibitor, single point].

How did the Potency turn out when `CC(C)n1cnc(I)c1I` was run?
Its Potency is inconclusive: 44.7 µM [inhibitor, partial curve, poor fit].

For `Cc1oc2ccc(OCc3c(F)cccc3Cl)cc2c1C(=O)O`, which “activity change, negative = inhibition” value is on record?
The value was inactive: -2.77%.

For `CN1CCN(c2nc(-c3cccnc3)nc3ccccc23)CC1`, which Potency is on record?
The Potency was “inactive”.

`O=C(Nc1ccccc1)N1CCN(C2CCNCC2)C(=O)C1` was tested. Which Potency did it give?
The Potency was inconclusive: 3.55 µM [inhibitor, full curve].

With `Cc1nc2ccccc2c(C)c1C(=O)c1ccccc1` as the molecule, how does the “activity change, negative = inhibition” value read?
Its value is inactive: -27.3%.

`Cn1cnc2cc(-c3cccc4[nH]ccc34)cc(C(=O)NCc3cccnc3)c21` was tested. Which “activity change, negative = inhibition” value did it give?
The value was inactive: -32.2% [at 176 µM].

Which Potency does the source give for `C[C@H](NC(=O)c1cc2c(cn1)[nH]c1ccccc12)C(=O)O` here?
Its Potency is inconclusive: 25.1 µM [inhibitor, full curve, poor fit].

For `COc1ccc(NC(=O)NC(C)c2c(-n3cccc3)sc3c2CCN(C)C3)c(OC)c1` (stereo not given), which Potency is on record?
Its Potency is inconclusive: 63.1 µM [inhibitor, partial curve, poor fit].

`COc1ccc(/C=C/c2ccc3ccccc3n2)cc1OC` was tested. Which Potency did it give?
The Potency was active: 28.2 µM.

With `CCCNC(=S)Nc1cccc(F)c1` as the molecule, how does the Potency read?
The Potency was inconclusive: 0.282 µM [inhibitor, full curve].

How did the Potency turn out when `O=C(NC1CCCCCCC1)c1ccc(CNc2c(N3CCOCC3)c(=O)c2=O)cc1` was run?
The Potency was inconclusive: 89.1 µM [inhibitor, single point].

`OCC1CCCN(Cc2ccc(-c3ccccc3)cc2)C1` (stereo not given) was tested. Which Potency did it give?
Its Potency is inconclusive: 1 µM [inhibitor, full curve].

For `O=C1/C(=C/c2ccco2)SC(=S)N1C1CCS(=O)(=O)C1` (stereo not given), which Potency is on record?
Its Potency is inconclusive: 44.7 µM [inhibitor, partial curve].

`CCn1c(C)cc(C=C2C(=O)c3ccccc3C2=O)c1C` was tested. Which Potency did it give?
The Potency was inconclusive: 44.7 µM [inhibitor, partial curve, poor fit].

For `COc1ccc(C)cc1-c1ccc(COc2ccc3c(cnn3CCC(=O)O)c2)cc1`, which Potency is on record?
Its Potency is inconclusive: 39.8 µM [inhibitor, full curve].

For `C[C@]12CC[C@@H]3c4ccc(O)cc4CC[C@H]3[C@@H]1CC[C@@H]2OC(=O)CCC(=O)O`, which Potency is on record?
The Potency was inconclusive: 17.8 µM [inhibitor, full curve].
